{"source": "patent US20240051960A1", "about": "“SPIROCYCLIC IMIDAZOLIDINONES AND IMIDAZOLIDINEDIONES FOR TREATMENT OF LIGHT CHAIN AMYLOIDOSIS” (Protego Biopharma, Inc., priority 2021, published 2024)", "tested_on": "Recombinant amyloidogenic full length light chain protein WIL-FL T46L", "experiment": "Differential Scanning Fluorimetry (thermal shift) assay", "assay_type": "binding", "details": "protein and compounds incubated at RT for 30 min before adding the dye, Thermal Shift Protein Stability Kit, 96-well plates", "protocol": "Differential Scanning Fluorimetry Assay\nThe stabilization effects the compounds have on the immunoglobulin light chain protein is quantitively measured using a thermal shift assay. Recombinant amyloidogenic full length light chain protein WIL-FL T46L is produced in E. coli, purified, and used in the assay. The Thermal Shift Protein Stability Kit from Biotium is used and the assay is done in 96-well Plates following the manufacture's instructions. The protein and compounds are incubated at RT for 30 min before adding the dye and subjected to the thermal shift assay. The thermal stability of each sample is then determined using standard curve fitting methods.\nCompounds that induce shifts in the ranges below are listed in the table below: • 0-0.5° C.=* • >0.5-1° C.=** • >1-1.5° C.=*** • >1.5° C.=****", "note": "Structures can show the parent of a compound that is named as a salt. Some results were stated once for a whole list of compounds, not compound by compound."}
{"compound": "O=C(CN1C(=O)NC2(CCN(c3nc4ccccc4[nH]3)CC2)C1=O)Nc1ccc(C(F)(F)F)cc1", "note": "[Compound 81, 2-(8-(1H-Benzo[d]imidazol-2-yl)-2,4-dioxo-1,3,8-triazaspiro[4.5]decan-3-yl)-N-(4-(trifluoromethyl)phenyl)acetamide hydrochloride]", "values": [{"measurement": "Thermal Shift", "result": "** (>0.5-1° C.=**)"}]}
